This note sets out measurements from patent publication US5082942A, “Novel derivatives of tetrahydro-2,3,6,7,1H,5H,11H-(1)benzopyrano(6,7,8,ij)quinolizinone-11 usable as markers of organic compounds for the detection of said compounds by chemiluminescence or fluorescence” (Laboratories Eurobio, priority 1988, dated 1992).

Series [1] can be described thus: Detection limit in liquid chromatography with detection by chemiluminescence (TCPO or DNPO and H2O2).
Series [2] in a line: Detection limit in liquid chromatography with fluorimetric detection. The following applies: for Detection Limit, Fluorescence: Table 1.

SMILES strings stand for the structures.

With `CCN(CCCCN)c1ccc2c(=O)[nH][nH]c(=O)c2c1` [Aminobutyl-ethyl isoluminol], the “Detection Limit, Chemiluminescence” value in series [1] (Table 1, neither TCPO nor DNPO stated) worked out at 20 fmol.
As to `CN(C)c1cccc2c(S(=O)(=O)Cl)cccc12` [Dansyl chloride], in series [2], the “Detection Limit, Fluorescence” value is 100 fmol. Also, in series [1] (Table 1), the “Detection Limit, Chemiluminescence (DNPO)” value is 5 fmol and the “Detection Limit, Chemiluminescence (TCPO)” value (“Detection Limit … (TCPO)” for short) is 10 fmol.
Consider `O=C1OC2(OC=C(c3ccccc3)C2=O)c2ccccc21` (stereo not shown) [Fluorescamine], for which, in series [2], the “Detection Limit, Fluorescence” value turned out to be 500 fmol. The “Detection Limit … (TCPO)” value in series [1] (Table 1) amounted to 25 fmol.
For `O=Cc1ccccc1C=O` [Orthophthaladehyde], in that order: 2100 fmol and 94 fmol.
In the case of `CCCCCNC(=O)Cc1cc(=O)oc2c3c4c(cc12)CCCN4CCC3` [derivative of pentylamine and luminarine], the “detection limit in liquid chromatography with fluorimetric detection” value in series [2] (excitation 380 nm, emission high-pass filter 470 nm) amounted to 380 fmol. Also, the “detection limit with detection by chemiluminescence” value in series [1] (injected) came to 2 fmol.
Turning to `O=C(Cc1cc(=O)oc2c3c4c(cc12)CCCN4CCC3)ON1C(=O)CCC1=O` [luminarine-1, tetrahydro-2,3,6,7,1H,5H, 11H(1)-benzo-pyrano(6,7,8-ij) succinimidoxycarbonylmethyl-9 quinolizinone-11], the “Detection Limit, Fluorescence” value in series [2] stood at 380 fmol. Also, in series [1] (Table 1), the “Detection Limit, Chemiluminescence (DNPO)” value stood at 1 fmol and the “Detection Limit … (TCPO)” value came out at 2 fmol.
